The campaign covered roughly 340,000 compounds. About 4,500 (1.3%) were called active. The shares of active, inactive and inconclusive entries below differ from those in the screen. The call rests on the fitted dose curve; in most records, active means well fitted inhibition curve with a large enough effect; inconclusive means small, poorly fitted or top-dose-only effect, or another doubt; inactive means no such curve, though single readings can be large or run the other way. A potency beside an inconclusive call is a rough fit, not a confirmed value.
Each compound was assayed against DNA polymerase beta (Homo sapiens) (UniProt P06746) (assay: qHTS Assay for Inhibitors of DNA Polymerase Beta). Details: Pol beta primer extension/strand displacement, fluorescence kinetic; activity change, negative = inhibition: at 114 µM (top of the series).
Outline: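 Pol beta (10 nM) was preincubated with compound for 15 min at room temperature. The reaction was then started with 50 nM substrate and read immediately and after a further 10 min at room temperature.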
On the % scale 0 is the no-effect control and ±100 the full control effect; potency means the concentration at half of the fitted maximal effect.

Row | SMILES | Potency | activity change, negative = inhibition
1 | O=C(Cc1cccc2ccccc12)NC(NC(=S)Nc1ccccc1Cl)C(Cl)(Cl)Cl (stereo not given) | inconclusive: 35.5 µM [inhibitor, full curve] | 
2 | O=C(c1ccco1)N1CCN(C(=O)c2snc3ccc(Cl)cc23)CC1 | inconclusive: 100 µM [inhibitor, single point] | 
3 | CCOC(=O)c1ccc(NC(=O)c2c(NCc3cc(OC)c(OC)cc3OC)sc3c2CCCC3)cc1 |  | inactive: -25.8%
4 | CC1C/C(=C\c2cccnc2)C(=O)/C(=C/c2cccnc2)C1 (stereo not given) |  | inactive: -2.32%
5 | COc1cccc(Cl)c1NC(=O)N1CCc2c([nH]c3ccccc23)C1C(F)(F)F (stereo not given) | inconclusive: 63.1 µM [inhibitor, single point] | 
6 | O=[N+]([O-])c1cc(-n2cccc2)ccc1N1CCOCC1 |  | inactive: 7.08%
7 | CCN1CCN(c2cc3c(cc2F)c(=O)c(S(=O)(=O)c2cc(C)cc(C)c2)cn3CC)CC1 |  | inactive: 2.17%
8 | O=C(Cc1ccccc1)Nc1ccc2oc(-c3ccncc3)nc2c1 | active: 22.4 µM | 
9 | Cc1cc(C2(c3ccc(O)c(C)c3)OC(=O)c3ccccc32)ccc1O | active: 35.5 µM | 
10 | CCCCN(C)S(=O)(=O)c1cc(-c2cc(C)no2)ccc1C |  | inactive: 17.8%
11 | O=C(CC12CC3CC(CC(C3)C1)C2)NCc1ccco1 | inconclusive: 3.98 µM [inhibitor, full curve, poor fit] | 
12 | NC1=NC(=Nc2cccc(S(N)(=O)=O)c2)c2ccccc21 |  | inactive: 101%
13 | COc1ccc(S(=O)(=O)CCC(=O)NC2CCCCC2)cc1 | inconclusive: 79.4 µM [inhibitor, single point] | 
14 | O=C(O)/C(=C\c1ccc(-c2ccc(F)cc2)o1)c1ccccc1 | inconclusive: 50.1 µM [inhibitor, partial curve] | 
15 | COc1ccc(-c2ccc(SCC(=O)c3cccs3)nn2)cc1OC | inconclusive: 0.316 µM [inhibitor, full curve, poor fit] | 
16 | CCOC(=O)c1cc(-c2ccccc2)n(CCC(=O)NCCc2ccc(OC)c(OC)c2)c1C | inconclusive: 89.1 µM [inhibitor, single point] | 
17 | CCc1cccc(C)c1NS(=O)(=O)c1ccc(-c2cc(C)no2)s1 | inconclusive: 89.1 µM [inhibitor, single point] | 
18 | O=C(O)CCc1ccc(-c2ccc(Br)cc2)n1Cc1ccco1 | inconclusive: 50.1 µM [inhibitor, partial curve, poor fit] | 
19 | CC(=O)c1cc(C#N)c(N(C)Cc2ccccc2)nc1C | inconclusive: 89.1 µM [inhibitor, single point] | 
20 | Cc1cc(O)c(C(=O)/C=C/c2cccc([N+](=O)[O-])c2)c(=O)o1 | inconclusive: 35.5 µM [inhibitor, partial curve] | 
21 | COCCN(C(=O)Cc1cccs1)C(C(=O)NCc1ccc(OC)cc1)c1ccc(C(C)C)cc1 (stereo not given) | inconclusive: 63.1 µM [inhibitor, single point] | 
22 | C[N+]1=C(/C=C/Nc2ccccc2Cl)C(C)(C)c2ccccc21 |  | inactive: 27%
23 | COc1ccc(OC)c(NC(=O)COC(=O)c2cc3c(s2)CCC3)c1 | active: 7.94 µM | 
24 | CCN(CC)S(=O)(=O)c1cccc(NC(=O)COC(=O)c2ccc(Br)o2)c1 | inconclusive: 4.47 µM [inhibitor, full curve, poor fit] | 

Row | SMILES | Potency | activity change, negative = inhibition
25 | Cc1cc(NS(=O)(=O)c2ccc(NC(=O)COc3ccccc3C(C)(C)C)cc2)no1 | inconclusive: 50.1 µM [inhibitor, single point] | 
26 | CCc1ccc2nc3c(c(C(=O)O)c2c1)CCC3 | inconclusive: 31.6 µM [inhibitor, partial curve] | 
27 | COc1ccc(S(=O)(=O)N2CCC(C(=O)NC3CC3)CC2)cc1Cl | inconclusive: 89.1 µM [inhibitor, single point] | 
28 | O=C(CC12CC3CC(CC(Br)(C3)C1)C2)Nc1cccc(S(=O)(=O)NC2=NCCC2)c1 |  | inactive: 23.6%
29 | Cc1cc(NC(=O)COC(=O)c2cc(S(=O)(=O)N(C)c3ccccc3)ccc2Cl)no1 |  | inconclusive: -43.9% [inhibitor]
30 | CCn1ccc2cc(S(=O)(=O)N3CCC(C(=O)NCc4ccc(F)cc4)CC3)ccc21 |  | inactive: 22.7%
31 | O=C1COc2ccc(C(=O)COc3ccc([N+](=O)[O-])cc3)cc2N1 | inconclusive: 100 µM [inhibitor, single point] | 
32 | Cc1cc(C)c(NC(=O)CN2C(=O)CCSc3ccc(S(=O)(=O)N4CCCC4)cc32)c(C)c1 | inconclusive: 89.1 µM [inhibitor, single point] | 
33 | COCCn1c(C)cc(O)c(C(c2ccc(Cl)cc2)N2CCCCC2)c1=O (stereo not given) | inconclusive: 79.4 µM [inhibitor, single point] | 
34 | O=S(=O)(Nc1ccc(Cl)c(Cl)c1)N1CCOCC1 | inconclusive: 79.4 µM [inhibitor, single point] | 
35 | C/C(=N\NC(=O)c1ccc(COc2ccccc2)cc1)c1ccncc1 | inconclusive: 20 µM [inhibitor, full curve, poor fit] | 
36 | Cn1cccc1/C=C1\SC(=Nc2ccc(O)cc2)NC1=O | inconclusive: 63.1 µM [inhibitor, single point] | 
37 | Cc1ccc(C)c(Nc2nn3c(=O)c4ccc(C(=O)NCc5cccs5)cc4nc3s2)c1 | active: 11.2 µM | 
38 | Cc1cnc(NC(=O)/C=C/c2ccc(Br)o2)s1 | inconclusive: 1.26 µM [inhibitor, full curve, poor fit] | 
39 | CCc1ccc(C(C(=O)NCc2ccc(F)cc2)N(C(=O)c2csnn2)C2CC2)cc1 (stereo not given) | inconclusive: 2.51 µM [inhibitor, full curve, poor fit] | 
40 | Cc1nnc(N/N=C/c2cccc(C(F)(F)F)c2)n1N |  | inactive: 2.62%
41 | CC(=O)NC1=NN(C(C)=O)C(C)(c2ccccc2)S1 (stereo not given) | active: 7.08 µM | 
42 | Cc1cc(C(=O)CSc2nnc(-c3cccc(F)c3)n2N)c(C)n1Cc1ccc2c(c1)OCO2 | inconclusive: 20 µM [inhibitor, partial curve] | 
43 | COC(=O)c1cn(CCOc2ccccc2F)c2ccccc12 | active: 89.1 µM | 
44 | CCn1c(SCC(=O)N2CCOCC2)nc2oc3c(Cl)cc(Cl)cc3c(=O)c2c1=O | inconclusive: 25.1 µM [inhibitor, full curve] | 
45 | NS(=O)(=O)c1ccc(NC(=O)Nc2cccc3ccccc23)cc1 | inconclusive: 50.1 µM [inhibitor, partial curve] | 
46 | Cc1ccccc1OCC(=O)NNC(=O)Nc1ccccc1 | inconclusive: 89.1 µM [inhibitor, single point] | 
47 | CCCCc1nnc2c(N(C)S(=O)(=O)c3ccc(C)cc3)nc3ccccc3n12 | inconclusive: 63.1 µM [inhibitor, single point] | 
48 | CN(C(=O)CCCN1C(=O)c2cccc3cccc(c23)C1=O)c1ccccc1 | inconclusive: 89.1 µM [inhibitor, single point] | 

Reprinted: compounds 33 to 35
Row | SMILES | Potency | activity change, negative = inhibition
33 | COCCn1c(C)cc(O)c(C(c2ccc(Cl)cc2)N2CCCCC2)c1=O (stereo not given) | inconclusive: 79.4 µM [inhibitor, single point] | 
34 | O=S(=O)(Nc1ccc(Cl)c(Cl)c1)N1CCOCC1 | inconclusive: 79.4 µM [inhibitor, single point] | 
35 | C/C(=N\NC(=O)c1ccc(COc2ccccc2)cc1)c1ccncc1 | inconclusive: 20 µM [inhibitor, full curve, poor fit] | 

Three structures out of the list, ordered by formula weight, smallest number first.
Row | SMILES | Potency | activity change, negative = inhibition
36 | Cn1cccc1/C=C1\SC(=Nc2ccc(O)cc2)NC1=O | inconclusive: 63.1 µM [inhibitor, single point] | 
31 | O=C1COc2ccc(C(=O)COc3ccc([N+](=O)[O-])cc3)cc2N1 | inconclusive: 100 µM [inhibitor, single point] | 
47 | CCCCc1nnc2c(N(C)S(=O)(=O)c3ccc(C)cc3)nc3ccccc3n12 | inconclusive: 63.1 µM [inhibitor, single point] | 

(further entries)

Row | SMILES | Potency | activity change, negative = inhibition
49 | Cn1c(=O)oc2cc(S(=O)(=O)Nc3ccccc3)ccc21 |  | inactive: -7.44%
50 | Oc1cccc(NC(=S)N=Nc2c(O)[nH]c3ccccc23)c1 | inconclusive: 0.282 µM [inhibitor, full curve] | 
51 | COCC(=O)N(Cc1cc2ccccc2[nH]c1=O)c1ccccc1OC | inconclusive: 56.2 µM [inhibitor, partial curve] | 
52 | COC(=O)c1cccc(N2CCCC2=O)c1 |  | inactive: -23.7%
53 | O=C1Cc2cc(S(=O)(=O)N3CCCCC3)ccc2N1 |  | inactive: 4.66%
54 | COc1ccc(S(=O)(=O)N2CCC(C(=O)NCc3cccnc3)CC2)cc1OC |  | inactive: 0.113%
55 | Cc1ccc(N=C2NC(=O)S/C2=C\c2ccco2)cc1 | active: 7.94 µM | 
56 | Nc1ccccc1C(=O)NNc1ncc(C(F)(F)F)cc1Cl | inconclusive: 79.4 µM [inhibitor, single point] | 
57 | N#Cc1ccccc1NC(=O)C(=O)NCC(c1cccnc1)N1CCN(c2ccccc2)CC1 (stereo not given) |  | inactive: 0.325%
58 | CCCCOc1ccccc1NC(=O)Cn1c(-c2nonc2N)nc2ccccc21 | inconclusive: 0.794 µM [inhibitor, full curve, poor fit] | 
59 | CC(=O)Nc1nc2ccc(NC(=O)c3ccco3)cc2s1 | inconclusive: 22.4 µM [inhibitor, full curve] | 
60 | Cn1ncc(N=Cc2ccccc2)c1C(N)=O |  | inactive: 0.901%
61 | O=[N+]([O-])c1ccc(C[n+]2cccc3ccc4cccnc4c32)cc1 | inconclusive: 5.01 µM [inhibitor, full curve, poor fit] | 
62 | Cc1ccc(OCC(=O)Nc2ccc(-c3nc4ccc(C)cc4o3)cc2)cc1 | inconclusive: 56.2 µM [inhibitor, partial curve] | 
63 | COc1cccc(COCCN2CCN(S(=O)(=O)c3ccc(C)cc3)CCC2=O)c1 | inconclusive: 89.1 µM [inhibitor, single point] | 
64 | C[N+](C)(C)CC(=O)N/N=C/c1c2ccccc2cc2ccccc12 | active: 44.7 µM | 
65 | Cc1nn(-c2ccccc2)c(Cl)c1/C=N/NC(=O)CNc1n[nH]c(=O)[nH]c1=O | inconclusive: 79.4 µM [inhibitor, single point] | 
66 | CCc1ccc(CNC(=O)C2CCN(c3nnc(-n4c(C)ccc4C)s3)CC2)cc1 | inconclusive: 39.8 µM [inhibitor, single point] | 
67 | CC(C)c1ccc(CN2C(=O)NC3(CCCCCC3)C2=O)cc1 |  | inactive: 5.57%
68 | O=[N+]([O-])c1ccc(C(c2sc3nc(-c4ccco4)nn3c2O)N2CCC3(CC2)OCCO3)cc1 (stereo not given) |  | inactive: 6.26%
69 | O=C(Nc1cccc(NC(=O)c2ccco2)c1)c1ccc([N+](=O)[O-])cc1 | inconclusive: 31.6 µM [inhibitor, full curve] | 
70 | CCOC(=O)c1[nH]c(C)c(C(=O)NCc2ccc(F)cc2)c1C | inconclusive: 39.8 µM [inhibitor, single point] | 

From PubChem BioAssay AID485314 (National Center for Advancing Translational Sciences (NCATS), 2010)
